These are yes or no findings as the source states them, for the method shown. Binding seen in cells or lysates may run through a third protein. Some binding calls cover weakened binding; strength is not graded here. Sequences can lack the tags named with a protein.
Molecular target: T1, Hspa13-V5 (mouse) (UniProt Q8BM72)
T1 sequence: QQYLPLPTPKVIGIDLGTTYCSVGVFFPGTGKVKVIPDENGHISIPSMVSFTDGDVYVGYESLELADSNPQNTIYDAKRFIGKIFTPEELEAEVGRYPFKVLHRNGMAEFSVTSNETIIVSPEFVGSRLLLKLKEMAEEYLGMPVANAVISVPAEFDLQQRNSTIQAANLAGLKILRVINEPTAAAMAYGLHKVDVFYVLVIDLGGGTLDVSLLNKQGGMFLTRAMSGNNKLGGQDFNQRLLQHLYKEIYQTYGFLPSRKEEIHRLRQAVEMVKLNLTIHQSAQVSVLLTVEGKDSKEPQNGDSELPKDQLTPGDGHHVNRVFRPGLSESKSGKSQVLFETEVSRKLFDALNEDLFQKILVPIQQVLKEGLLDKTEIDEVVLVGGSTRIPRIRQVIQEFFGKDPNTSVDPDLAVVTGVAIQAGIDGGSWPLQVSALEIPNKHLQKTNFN
Assay: co-IP; Hspa13-V5 and Bcap31-Flag transiently co-transfected into 293T cells; lysed 48 h after transfection; immunoprecipitated with anti-V5 antibody, probed with anti-Flag antibody

binding: binds
B1: Bcap31-Flag (protein, UniProt Q61335 1-245)
chain: MSLQWTTVATFLYAEVFAVLLLCIPFISPKRWQKVFKSRLVELVVTYGNTFFVVLIVILVLLVIDAVREILKYDDVTEKVNLQNNPGAMEHFHMKLFRAQRNLYIAGFSLLLSFLLRRLVTLISQQATLLASNEAFKKQAESASEAAKKYMEENDQLKKGAAEDGDKLDIGNTEMKLEENKSLKNDLRKLKDELASTKKKLEKAENEALAMQKQSEGLTKEYDRLLEEHAKLQASVRGPSVKKEE
